Assay results taken from publication PMC10845262.
Results are given in words; binding and its absence hold for the method and conditions named. Binding seen in cells or lysates may run through a third protein. Some binding calls cover weakened binding; strength is not graded here.

Sequences of proteins named here, by UniProt entry; tags and fusion partners are left off.
UniProt O35129: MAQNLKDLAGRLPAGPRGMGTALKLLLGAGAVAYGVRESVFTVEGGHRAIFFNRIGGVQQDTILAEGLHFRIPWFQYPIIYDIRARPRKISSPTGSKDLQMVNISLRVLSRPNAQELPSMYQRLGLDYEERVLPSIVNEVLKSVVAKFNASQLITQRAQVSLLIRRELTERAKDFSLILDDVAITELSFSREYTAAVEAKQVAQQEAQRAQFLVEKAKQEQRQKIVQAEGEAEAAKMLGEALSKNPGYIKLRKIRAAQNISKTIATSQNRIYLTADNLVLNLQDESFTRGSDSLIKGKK

Target: Prohibitin 2 (UniProt O35129)
Experiment: co-IP; cell lysate (150 mM NaCl, 10% glycerol, 20 mM Tris-HCl pH 7.4, 2 mM EDTA, 0.5% Nonidet P-40, 0.5% Triton X-100, protease inhibitor) incubated with anti-Flag M2 affinity gel at 4 °C overnight; six washes; Western blot; Flag-tagged bait not stated

binding: binds
B1: Dual-specificity phosphatase 1 (enzyme, UniProt P28563 1-367)
chain: MVMEVGILDAGGLRALLREGAAQCLLLDCRSFFAFNAGHIAGSVNVRFSTIVRRRAKGAMGLEHIVPNAELRGRLLAGAYHAVVLLDERSASLDGAKRDGTLALAAGALCREARSTQVFFLQGGYEAFSASCPELCSKQSTPTGLSLPLSTSVPDSAESGCSSCSTPLYDQGGPVEILSFLYLGSAYHASRKDMLDALGITALINVSANCPNHFEGHYQYKSIPVEDNHKADISSWFNEAIDFIDSIKDAGGRVFVHCQAGISRSATICLAYLMRTNRVKLDEAFEFVKQRRSIISPNFSFMGQLLQFESQVLAPHCSAEAGSPAMAVLDRGTSTTTVFNFPVSIPVHPTNSALNYLKSPITTSPSC
